Data as given in the supplement of paper PMC10849652.
Some of the results follow.

Amino acid sequences for entries named in this document (tags omitted). A change or cut given only in a name is not applied to a line headed by its entry.
UniProt P30305: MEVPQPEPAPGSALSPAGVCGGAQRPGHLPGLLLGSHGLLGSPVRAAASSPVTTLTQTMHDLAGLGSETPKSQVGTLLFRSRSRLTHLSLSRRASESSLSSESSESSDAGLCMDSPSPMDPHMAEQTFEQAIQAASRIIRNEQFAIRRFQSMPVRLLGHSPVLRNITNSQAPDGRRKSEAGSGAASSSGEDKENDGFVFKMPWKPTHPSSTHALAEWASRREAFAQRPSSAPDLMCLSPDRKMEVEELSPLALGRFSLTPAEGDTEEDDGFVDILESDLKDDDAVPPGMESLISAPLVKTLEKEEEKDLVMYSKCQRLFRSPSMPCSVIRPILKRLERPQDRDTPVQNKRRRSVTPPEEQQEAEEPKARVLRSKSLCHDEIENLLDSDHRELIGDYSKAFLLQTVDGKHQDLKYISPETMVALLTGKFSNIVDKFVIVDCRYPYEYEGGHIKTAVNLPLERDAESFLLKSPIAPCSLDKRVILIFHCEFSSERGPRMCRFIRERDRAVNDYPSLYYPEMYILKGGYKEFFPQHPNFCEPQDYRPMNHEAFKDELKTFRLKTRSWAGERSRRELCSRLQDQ
UniProt P49427: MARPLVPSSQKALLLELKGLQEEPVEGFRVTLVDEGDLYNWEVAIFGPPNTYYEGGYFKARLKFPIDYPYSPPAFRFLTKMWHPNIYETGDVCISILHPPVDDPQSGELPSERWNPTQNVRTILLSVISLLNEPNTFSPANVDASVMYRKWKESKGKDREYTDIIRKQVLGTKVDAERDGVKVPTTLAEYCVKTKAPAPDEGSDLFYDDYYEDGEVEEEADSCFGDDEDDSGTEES
UniProt P30260, whole entry, looked up: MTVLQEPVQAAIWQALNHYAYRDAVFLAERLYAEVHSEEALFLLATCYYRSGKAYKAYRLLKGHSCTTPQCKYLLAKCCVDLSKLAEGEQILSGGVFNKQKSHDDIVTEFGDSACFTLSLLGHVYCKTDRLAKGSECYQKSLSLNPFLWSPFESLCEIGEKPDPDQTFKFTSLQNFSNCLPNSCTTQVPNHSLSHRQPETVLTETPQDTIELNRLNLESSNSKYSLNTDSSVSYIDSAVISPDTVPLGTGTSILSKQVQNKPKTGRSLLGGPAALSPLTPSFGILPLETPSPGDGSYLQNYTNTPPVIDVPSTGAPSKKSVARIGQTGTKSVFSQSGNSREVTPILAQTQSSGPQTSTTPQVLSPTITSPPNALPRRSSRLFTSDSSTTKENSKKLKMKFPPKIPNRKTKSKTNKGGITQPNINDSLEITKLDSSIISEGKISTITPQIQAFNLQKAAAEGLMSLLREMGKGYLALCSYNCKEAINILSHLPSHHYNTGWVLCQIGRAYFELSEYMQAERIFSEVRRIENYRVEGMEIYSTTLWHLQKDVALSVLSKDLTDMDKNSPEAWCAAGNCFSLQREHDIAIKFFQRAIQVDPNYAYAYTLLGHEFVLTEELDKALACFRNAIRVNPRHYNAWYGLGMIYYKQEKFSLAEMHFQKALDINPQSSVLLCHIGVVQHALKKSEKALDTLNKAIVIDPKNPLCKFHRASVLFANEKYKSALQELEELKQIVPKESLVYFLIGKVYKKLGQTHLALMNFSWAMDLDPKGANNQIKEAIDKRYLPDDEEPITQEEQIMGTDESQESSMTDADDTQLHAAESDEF
UniProt Q8NHZ8, whole entry, looked up: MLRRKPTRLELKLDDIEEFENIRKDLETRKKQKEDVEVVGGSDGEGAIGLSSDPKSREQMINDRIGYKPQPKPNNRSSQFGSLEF
UniProt P50613: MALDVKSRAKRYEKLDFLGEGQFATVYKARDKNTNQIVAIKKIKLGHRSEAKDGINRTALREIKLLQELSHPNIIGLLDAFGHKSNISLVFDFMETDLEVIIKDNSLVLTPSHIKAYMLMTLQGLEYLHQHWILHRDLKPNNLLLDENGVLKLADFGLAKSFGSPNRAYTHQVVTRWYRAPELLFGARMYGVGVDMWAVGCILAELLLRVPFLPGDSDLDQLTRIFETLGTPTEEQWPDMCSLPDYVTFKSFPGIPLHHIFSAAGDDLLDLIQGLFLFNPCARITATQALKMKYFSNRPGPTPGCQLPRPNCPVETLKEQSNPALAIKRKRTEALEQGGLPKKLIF
UniProt P21127: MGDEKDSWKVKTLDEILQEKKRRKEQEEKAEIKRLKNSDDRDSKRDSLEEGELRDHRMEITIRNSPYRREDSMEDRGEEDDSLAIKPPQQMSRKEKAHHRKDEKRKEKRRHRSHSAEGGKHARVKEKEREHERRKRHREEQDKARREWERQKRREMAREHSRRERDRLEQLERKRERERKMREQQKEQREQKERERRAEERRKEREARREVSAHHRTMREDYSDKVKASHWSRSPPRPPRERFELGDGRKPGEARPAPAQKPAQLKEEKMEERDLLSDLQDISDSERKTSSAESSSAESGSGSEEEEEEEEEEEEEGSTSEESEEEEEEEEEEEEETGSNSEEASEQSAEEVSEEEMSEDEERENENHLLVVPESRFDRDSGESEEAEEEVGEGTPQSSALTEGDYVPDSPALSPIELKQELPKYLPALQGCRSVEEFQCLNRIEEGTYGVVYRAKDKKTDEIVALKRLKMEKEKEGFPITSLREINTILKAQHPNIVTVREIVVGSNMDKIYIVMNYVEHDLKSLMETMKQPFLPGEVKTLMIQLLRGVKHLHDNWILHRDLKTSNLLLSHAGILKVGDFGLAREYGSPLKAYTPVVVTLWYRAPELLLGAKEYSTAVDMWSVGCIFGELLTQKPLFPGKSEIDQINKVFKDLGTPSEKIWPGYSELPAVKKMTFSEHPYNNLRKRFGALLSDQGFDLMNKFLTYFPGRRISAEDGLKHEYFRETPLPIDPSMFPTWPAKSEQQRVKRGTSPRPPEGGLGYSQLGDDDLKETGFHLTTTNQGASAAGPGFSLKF
UniProt Q99459: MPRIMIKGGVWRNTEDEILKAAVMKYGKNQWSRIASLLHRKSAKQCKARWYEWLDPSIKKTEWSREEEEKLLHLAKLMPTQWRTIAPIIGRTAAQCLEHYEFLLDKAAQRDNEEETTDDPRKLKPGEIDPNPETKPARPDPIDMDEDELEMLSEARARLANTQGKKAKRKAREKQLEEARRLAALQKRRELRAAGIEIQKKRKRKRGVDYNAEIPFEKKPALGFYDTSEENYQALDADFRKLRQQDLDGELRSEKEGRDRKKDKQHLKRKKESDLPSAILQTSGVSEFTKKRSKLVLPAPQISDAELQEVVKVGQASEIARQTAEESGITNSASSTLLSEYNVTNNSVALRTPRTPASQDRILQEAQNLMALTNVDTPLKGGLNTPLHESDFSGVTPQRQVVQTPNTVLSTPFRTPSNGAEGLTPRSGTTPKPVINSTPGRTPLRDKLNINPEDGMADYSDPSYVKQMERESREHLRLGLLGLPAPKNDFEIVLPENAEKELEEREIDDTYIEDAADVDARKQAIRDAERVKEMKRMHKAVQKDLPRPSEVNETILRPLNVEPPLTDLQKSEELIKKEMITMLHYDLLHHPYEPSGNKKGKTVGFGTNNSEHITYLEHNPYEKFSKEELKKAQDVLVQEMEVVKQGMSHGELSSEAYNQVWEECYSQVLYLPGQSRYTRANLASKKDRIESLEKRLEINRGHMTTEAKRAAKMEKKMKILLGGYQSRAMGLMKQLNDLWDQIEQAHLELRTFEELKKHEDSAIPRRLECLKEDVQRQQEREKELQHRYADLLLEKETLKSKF
UniProt P60953, whole entry, looked up: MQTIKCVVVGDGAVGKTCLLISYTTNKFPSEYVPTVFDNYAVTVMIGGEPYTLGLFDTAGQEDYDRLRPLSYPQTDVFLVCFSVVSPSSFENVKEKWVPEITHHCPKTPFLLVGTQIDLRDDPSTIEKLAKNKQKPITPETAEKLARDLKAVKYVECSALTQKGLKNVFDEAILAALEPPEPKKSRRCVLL
UniProt P57076: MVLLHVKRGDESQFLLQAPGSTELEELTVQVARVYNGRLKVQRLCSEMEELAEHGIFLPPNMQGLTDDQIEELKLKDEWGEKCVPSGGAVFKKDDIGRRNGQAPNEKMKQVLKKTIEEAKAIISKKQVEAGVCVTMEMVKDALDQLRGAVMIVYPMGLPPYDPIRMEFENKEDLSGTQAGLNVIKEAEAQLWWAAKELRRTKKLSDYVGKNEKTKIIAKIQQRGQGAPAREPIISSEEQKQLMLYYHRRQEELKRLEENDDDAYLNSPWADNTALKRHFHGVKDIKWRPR
UniProt Q8TAP6: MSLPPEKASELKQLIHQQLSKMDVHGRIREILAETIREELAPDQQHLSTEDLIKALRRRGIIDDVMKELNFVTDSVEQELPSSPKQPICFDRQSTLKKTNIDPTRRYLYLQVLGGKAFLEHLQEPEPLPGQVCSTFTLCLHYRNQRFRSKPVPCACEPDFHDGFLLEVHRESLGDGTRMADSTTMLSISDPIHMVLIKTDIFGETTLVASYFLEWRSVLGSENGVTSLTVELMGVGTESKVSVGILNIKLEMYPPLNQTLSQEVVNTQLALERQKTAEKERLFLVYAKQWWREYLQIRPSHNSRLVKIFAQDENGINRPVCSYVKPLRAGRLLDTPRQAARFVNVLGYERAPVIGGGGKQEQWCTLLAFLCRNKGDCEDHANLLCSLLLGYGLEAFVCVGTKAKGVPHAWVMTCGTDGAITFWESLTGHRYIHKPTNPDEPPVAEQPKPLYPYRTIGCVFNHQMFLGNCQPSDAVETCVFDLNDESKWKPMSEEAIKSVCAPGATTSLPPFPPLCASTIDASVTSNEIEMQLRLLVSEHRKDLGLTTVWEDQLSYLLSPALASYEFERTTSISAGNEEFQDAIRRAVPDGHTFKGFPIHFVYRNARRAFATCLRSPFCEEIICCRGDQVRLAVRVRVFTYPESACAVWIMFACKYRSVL
UniProt Q00587: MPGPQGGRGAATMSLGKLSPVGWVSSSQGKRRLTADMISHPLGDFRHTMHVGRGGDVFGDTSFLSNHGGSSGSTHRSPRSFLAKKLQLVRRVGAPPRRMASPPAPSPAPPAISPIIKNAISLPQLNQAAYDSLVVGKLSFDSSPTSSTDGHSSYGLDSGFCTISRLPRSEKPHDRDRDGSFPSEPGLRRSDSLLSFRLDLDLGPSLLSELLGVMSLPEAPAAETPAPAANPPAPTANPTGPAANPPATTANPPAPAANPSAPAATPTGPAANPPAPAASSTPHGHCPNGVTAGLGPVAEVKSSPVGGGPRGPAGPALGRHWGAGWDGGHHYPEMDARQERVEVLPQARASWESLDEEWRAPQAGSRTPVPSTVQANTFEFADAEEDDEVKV
UniProt O14735: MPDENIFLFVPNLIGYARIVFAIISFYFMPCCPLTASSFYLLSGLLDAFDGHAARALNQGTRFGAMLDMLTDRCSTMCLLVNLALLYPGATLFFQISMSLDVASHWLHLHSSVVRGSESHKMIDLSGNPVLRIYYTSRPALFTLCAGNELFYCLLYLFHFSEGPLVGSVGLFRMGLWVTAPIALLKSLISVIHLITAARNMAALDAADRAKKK
UniProt Q9UJX2, whole entry, looked up: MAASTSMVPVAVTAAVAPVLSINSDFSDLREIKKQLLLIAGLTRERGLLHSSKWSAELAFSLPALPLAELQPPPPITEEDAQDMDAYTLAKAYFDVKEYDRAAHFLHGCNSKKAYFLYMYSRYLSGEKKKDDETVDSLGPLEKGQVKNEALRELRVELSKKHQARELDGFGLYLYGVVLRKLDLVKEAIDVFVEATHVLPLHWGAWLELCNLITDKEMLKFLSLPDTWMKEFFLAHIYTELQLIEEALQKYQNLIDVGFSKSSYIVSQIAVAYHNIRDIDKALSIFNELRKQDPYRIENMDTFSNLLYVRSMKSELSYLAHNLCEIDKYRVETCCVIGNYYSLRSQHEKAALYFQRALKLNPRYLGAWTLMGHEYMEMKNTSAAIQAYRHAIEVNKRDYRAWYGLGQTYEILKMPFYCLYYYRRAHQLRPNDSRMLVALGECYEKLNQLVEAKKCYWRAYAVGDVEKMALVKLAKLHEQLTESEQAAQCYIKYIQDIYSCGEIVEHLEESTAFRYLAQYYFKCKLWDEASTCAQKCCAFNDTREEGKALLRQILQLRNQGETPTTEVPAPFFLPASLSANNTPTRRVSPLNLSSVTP

Columns and labels:
Test in all cases: log2 fold change, soluble protein after heating vs DMSO (PISA); higher = thermal stabilisation; K562 lysate, 10 uM; active = over 0.2 and 3.5 SD of the protein, either way, in both replicates (recomputed)
[1] = compound: C#Cc1cccc(Nc2ncnc3cc(OCCOC)c(OCCOC)cc23)c1 [erlotinib]
Procedure, shortened: (§1)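 The values are log-two fold changes in thermal stability compared with solvent controls and come from duplicates. They were obtained by TMTpro 16plex LC-MS/MS, with channel sums equalised, on the supernatant after 21,000xg for 90 min. That supernatant came from crude K562 extract at 1 mg/mL protein treated with 10 μM compound for 30 min, heated for 3 min across 48°C-58°C, pooled and brought to 0.5% NP-40 at 4°C.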

[2] = compound: C/C(=N\NC(=O)C1=CC(=CC=C1)S(=O)(=O)N2CCOCC2)/C3=C(C=CC(=C3)Cl)O
Procedure, shortened: as §1

[3] = compound: C1=CC(=CC=C1C2=NC3=C(N2)C=C(C=C3)C(=O)N)OC4=CC=C(C=C4)Cl
Procedure, shortened: as §1

[4] = compound: C1=CC2=C(C=CC(=C2)/C=C\3/C(=O)NC(=NCC4=CC=CS4)S3)N=C1
Procedure, shortened: as §1

[5] = compound: C1=CC2=NC=CN=C2C=C1/C=C/3\C(=O)NC(=O)S3
Procedure, shortened: as §1

[6] = compound: C1=CC=C(C=C1)C2=NC(=C(N2)C3=CC=NC=C3)C4=CC(=C(C=C4)Cl)O
Procedure, shortened: as §1

[7] = compound: C1=CC=C2C(=C1)C3=NNC4=CC=CC(=C43)C2=O
Procedure, shortened: as §1

[8] = compound: C1CCN(C1)C(=O)NC2=CC=CC(=C2)NC3=NC=C(C(=N3)NCCC4=CN=CN4)Br
Procedure, shortened: as §1

[9] = compound: C1CN(CCC1(CC2=CC=C(C=C2)Cl)N)C3=NC=NC4=C3C=CN4
Procedure, shortened: as §1

[10] = compound: C1COCCN1CCN2C3=CC=CC=C3N=C2NC(=O)C4=CC(=CC=C4)[N+](=O)[O-] [IRAK-1-4 Inhibitor I]
Procedure, shortened: as §1

Measured: log2 fold change

CDC25B (UniProt P30305)
inactive: [1] 0.016 | [2] 0.043 | [3] 0.024 | [4] 0.015 | [5] -0.03 | [6] 0.029 | [7] -0.018 | [8] -0.016 | [9] -0.015 | [10] 0.033

CDC34 (UniProt P49427)
inactive: [1] 0.005 | [2] -0.081 | [3] -0.069 | [4] -0.004 | [5] 0.03 | [6] -0.025 | [7] 0.002 | [8] 0.07 | [9] 0.019 | [10] -0.071

CDC27 isoform 2 (UniProt P30260)
inactive: [1] -0.005 | [2] 0.023 | [3] -0.027 | [4] -0.014 | [5] 0.01 | [6] 0.014 | [7] 0.009 | [8] 0.023 | [9] 0.016 | [10] 0.001

CDC26 (UniProt Q8NHZ8)
inactive: [1] 0.035 | [2] 0.042 | [3] -0.03 | [4] -0.049 | [5] -0.063 | [6] 0.024 | [7] -0.003 | [8] 0.034 | [9] -0.002 | [10] -0.018

CDK7 (UniProt P50613)
inactive: [1] 0.011 | [2] 0.04 | [3] 0.106 | [4] -0.034 | [5] -0.036 | [6] 0.006 | [7] -0.009 | [8] -0.022 | [9] 0.018 | [10] 0.017

CDK11B (UniProt P21127)
inactive: [1] 0.01 | [2] 0.025 | [3] -0.029 | [4] 0.008 | [5] -0.018 | [6] 0.017 | [7] -0.049 | [8] -0.016 | [9] -0.003 | [10] -0.021

CDC5L (UniProt Q99459)
inactive: [1] -0.002 | [2] -0.013 | [3] -0.034 | [4] -0.015 | [5] -0.001 | [6] 0.023 | [7] 0.033 | [8] 0.012 | [9] -0.03 | [10] -0.012

CDC42 (UniProt P60953)
inactive: [1] -0.079 | [2] 0.093 | [3] 0.02 | [4] 0.034 | [5] -0.039 | [6] 0.015 | [7] 0.064 | [8] 0 | [9] -0.023 | [10] -0.013

CFAP298 (UniProt P57076)
inactive: [1] 0.016 | [2] 0.072 | [3] -0.024 | [4] 0.044 | [5] 0.017 | [6] 0.002 | [7] -0.026 | [8] -0.016 | [9] -0.003 | [10] -0.031

CEP76 (UniProt Q8TAP6)
inactive: [1] 0.005 | [2] -0.033 | [3] 0.012 | [4] 0.053 | [5] -0.072 | [6] -0.003 | [7] 0.052 | [8] -0.002 | [9] 0 | [10] 0.056

CDC42EP1 (UniProt Q00587)
inactive: [1] 0.144 | [2] -0.034 | [3] 0.204 | [4] -0.14 | [5] 0.023 | [6] -0.012 | [7] -0.063 | [8] -0.087 | [9] 0.038 | [10] -0.046

CDIPT (UniProt O14735)
inactive: [1] 0.007 | [2] -0.098 | [3] -0.043 | [4] -0.021 | [5] 0.013 | [6] -0.067 | [7] -0.051 | [8] 0.009 | [9] 0.023 | [10] 0.003

CDK5RAP2 (UniProt Q96SN8)
inactive: [1] 0.037 | [2] 0.159 | [3] -0.021 | [4] -0.008 | [5] -0.09 | [6] -0.011 | [7] -0.025 | [8] -0.016 | [9] 0.001 | [10] -0.026

CDC23 (UniProt Q9UJX2)
inactive: [1] -0.011 | [2] -0.029 | [3] -0.017 | [4] -0.002 | [5] -0.01 | [6] -0.001 | [7] 0.005 | [8] 0.005 | [9] -0.005 | [10] 0.011
